Laboratory results: the supplement of paper PMC12889115
The list shows a part of the results. These are raw signals, not scaled to a control.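 In the initial screen, polymyxin B was used at a concentration that permeabilizes Salmonella's outer membrane but not its inner membrane. Maximum growth was set by DMSO wells with or without polymyxin B. Since plates varied, data were ranked per plate, and compounds giving the lowest OD600 advanced as hits.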

Test system: Salmonella enterica serovar Typhimurium SL1344
Assay: bacterial growth OD600 after 18 h with compound and polymyxin B; higher = more bacterial growth (less inhibition)
Conditions: 50 µM, Mueller-Hinton broth

SMILES	bacterial growth OD600 (polymyxin B 0.75 µg/mL)	bacterial growth OD600 (polymyxin B 1 µg/mL)
COc1cccc(N2C[C@@H]3C[C@@H](c4cc5c(cc4Cl)OCO5)N4CCC[C@@]34C2=O)c1	0.141	
CCSc1ncc(CN2CCC3(CCCN(Cc4ccc(F)c(F)c4)C3)C2)cn1 (stereo unspecified)		0.765
CN(C(=O)CC1(c2ccccc2)CC(=O)N(CCCOc2cccnc2)C1=O)C1CCOC1 (stereo unspecified)	0.95	
O=C1CCC(C(=O)N2CCC(C3CCN(Cc4cccnc4)CC3)C2)=NN1 (stereo unspecified)	0.816	
O=C(c1cc(COc2cccc(F)c2)[nH]n1)N1CCCN(c2ncccn2)CC1		0.95
c1cncc(OCCNc2nc3nonc3nc2N2CCCCC2)c1		0.823
CCOC(=O)C1(Cc2ccc(Cl)cc2)CCN(Cc2nccn2CC)CC1		0.943
Cc1c(-c2ccccc2F)[nH]c2ccc(CNC(=O)CCN3CCCC3=O)cc12		0.7
CSc1ccc(CN2CC[C@@H](N3CCN(c4ccccc4F)CC3)[C@H](O)C2)cc1		0.846
COc1cc(C(=O)NCc2ccncc2C)ccc1OC1CCN(C(C)=O)CC1		0.847
Cc1cccc(NC(=O)CCC2CCN(C(=O)C3CCCC3)CC2)c1		0.814
CCCc1cc(C(=O)N2CCC3(CC2)c2ccccc2[C@@H](NC(=O)CC)[C@@H]3OC)n(C)n1	0.906	
COc1ccccc1C1c2[nH]c3ccccc3c2CCN1Cc1nc(C)c[nH]1 (stereo unspecified)		1.27
Cc1nonc1CC(=O)N1CCc2[nH]nc(-c3ccc(C(F)(F)F)cc3)c2C1	0.8	
Cc1ccccc1Cc1nc2cccnc2n1C1CCN(C(=O)c2ccc3c(c2)OCO3)CC1	0.848	
C=C(C)CNC(=O)c1coc(COc2ccc3c(c2)OCO3)n1		0.81

SMILES	bacterial growth OD600 (polymyxin B 0.75 µg/mL)	bacterial growth OD600 (polymyxin B 1 µg/mL)
COc1ccccc1C(C)N(C)C(=O)c1cn(Cc2cccc(C(F)(F)F)c2)nn1 (stereo unspecified)		0.846
O=C(c1nc[nH]n1)N1CCN(Cc2c[nH]nc2-c2ccc(-c3ccccc3)cc2)CC1		0.91
O=C1CCC(CCNCCOc2ccc(F)cc2)N1CCCc1ccccc1 (stereo unspecified)	0.986	
COCCn1cnc2cc(NC(=O)C3CCCCC3)cc(C(=O)N3CCCCC3c3cccnc3)c21 (stereo unspecified)	0.821	
COc1ccc(CNC(=O)CCC2CCCN(Cc3ccco3)C2)c(OC)c1 (stereo unspecified)	0.783	
O=C(c1cccc(OC2CCN(C/C=C/c3ccccc3)CC2)c1)N1CCCC1	0.716	
COC(=O)C1CCCCN1C(=O)c1c(OC)cc(=O)n2c1CCN(Cc1ccc(C)cc1)CC2 (stereo unspecified)	0.882	
COc1ccc(OC)c(CC(=O)N2CCc3c(cnc(C)c3CNC(=O)c3ccsc3)C2)c1	0.913	
COCCC(=O)Nc1ccc2c(c1)CN(C(=O)c1cc3c(s1)CCCCC3)CC2		0.002
CCOC(=O)C1(Cc2ccccc2Cl)CCN(C(=O)c2ccc(OC)o2)CC1		0.474
CN(C)C1CCN(C(=O)c2cc(Cl)ccc2OC2CCN(C3CCCC3)CC2)C1 (stereo unspecified)		1.22
COc1ccc(CN2CCN(Cc3ccc(OC)c(C)c3C)C(CCO)C2)cc1OC (stereo unspecified)		0.957
CCCS(=O)(=O)N1CCCC(Cc2ccccc2C)(C(=O)OCC)C1 (stereo unspecified)		0.787
CSCCC(=O)N(Cc1cccnc1)CC1CCN(Cc2ccccc2C)CC1		1.2
COc1ccc(CN2Cc3cc(Cl)ccc3OC(C)C2)c(OC)c1OC (stereo unspecified)	0.017	

2 entries drawn at random from those above, as already listed:
SMILES	bacterial growth OD600 (polymyxin B 0.75 µg/mL)	bacterial growth OD600 (polymyxin B 1 µg/mL)
O=C1CCC(CCNCCOc2ccc(F)cc2)N1CCCc1ccccc1 (stereo unspecified)	0.986	
CSCCC(=O)N(Cc1cccnc1)CC1CCN(Cc2ccccc2C)CC1		1.2
